{"source": "the supplement of paper PMC5407854", "about": "“Inhibitor of ppGalNAc-T3-mediated O-glycosylation blocks cancer cell invasiveness and lowers FGF23 levels” (eLife, 2017)", "note": "The other results are listed elsewhere or left out. Most entries show no effect beyond the scatter of the controls.", "data": [{"test_system": "ppGalNAc-T3 sensor", "assay": "T3 sensor activation Q score (MG/GFP ratio z-score vs DMSO controls) (SD units); higher = more sensor activation (inhibition of ppGalNAc-T3 glycosylation)", "settings": "HEK293 sensor cells; 10 µM; 6 h", "method": "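Cells were treated with compound at 10 uM for 6 h, then MG/GFP ratio was read by flow cytometry (10,000 cells per well, duplicate wells). Q = (R - R_neg)/SD_neg relative to DMSO vehicle controls; the signal rises when the glycosyltransferase is inhibited.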", "values": [{"smiles": "Clc1ccc(OCc2nc3ccccc3[nH]2)c(Cl)c1", "T3 sensor activation Q score": -0.16}, {"smiles": "CSc1cccc(NC(=O)C2CCN(C(=O)Cc3ccccc3)CC2)c1", "T3 sensor activation Q score": -0.365}, {"smiles": "Cc1ccc(NC(=O)Nc2ccccc2)c(Br)c1", "T3 sensor activation Q score": 0.17}, {"smiles": "COc1ccc(S(=O)(=O)Nc2ccc3oc(C)c(C(C)=O)c3c2)cc1", "T3 sensor activation Q score": -0.405}, {"smiles": "O=C(Nc1ccc(N2CCOCC2)cc1)c1ccccc1F", "T3 sensor activation Q score": 0.955}, {"smiles": "O=C(O)C1CC=CC[C@@H]1Cc1ccccc1", "note": "(some centres not stated)", "T3 sensor activation Q score": 0.035}, {"smiles": "Nc1ccc(C(=O)c2ccccc2)cc1[N+](=O)[O-]", "T3 sensor activation Q score": 0.06}, {"smiles": "O=[N+]([O-])c1ccccc1CN1CCCCCCC1", "T3 sensor activation Q score": 0}, {"smiles": "Cc1cccc(OCCNCCO)c1C", "T3 sensor activation Q score": 0.275}, {"smiles": "O=C(c1ccc([N+](=O)[O-])cc1Cl)N1CCOCC1", "T3 sensor activation Q score": 0.945}, {"smiles": "OC(CN1CCCCCC1)CN(c1ccccc1)c1ccccc1", "note": "(configuration not stated)", "T3 sensor activation Q score": 0.555}, {"smiles": "Cc1ccc(S(=O)(=O)Nc2ccc(Cl)cc2)cc1", "T3 sensor activation Q score": -0.73}, {"smiles": "Cn1ncc(Cl)c(Oc2ccc(Cl)cc2)c1=O", "T3 sensor activation Q score": -0.41}, {"smiles": "COc1ccc(Br)cc1S(=O)(=O)N1CC(C)CC(C)C1", "note": "(configuration not stated)", "T3 sensor activation Q score": -0.12}, {"smiles": "COc1ccc(CN2CCN(c3ccc(Cl)cc3)CC2)c(OC)c1C", "T3 sensor activation Q score": 0.44}, {"smiles": "Cc1ccc(C)c(NS(C)(=O)=O)c1", "T3 sensor activation Q score": 0.02}, {"smiles": "Cc1cc(C)c(C(=O)c2ccc(C(=O)N3CCOCC3)cc2)c(C)c1", "T3 sensor activation Q score": -0.355}]}]}
